What all share (test): cryo-EM structure; single-particle cryo-EM of the 48-nm repeat of native doublet microtubules from axonemes isolated from human respiratory cilia (ALI cultures); 3.6 Å consensus, 3.1 to 3.5 Å after local refinement
Test [1] concerns the target β-tubulin (TUBB4B) of the human respiratory DMT (human (endogenous in respiratory cilia)) (UniProt P68371).
Test [2] addresses tektin 1 (human (endogenous in respiratory cilia)) (UniProt Q969V4).
Test [3] addresses T1, CFAP52 (human (endogenous in respiratory cilia)) (UniProt Q8N1V2).
T1 sequence: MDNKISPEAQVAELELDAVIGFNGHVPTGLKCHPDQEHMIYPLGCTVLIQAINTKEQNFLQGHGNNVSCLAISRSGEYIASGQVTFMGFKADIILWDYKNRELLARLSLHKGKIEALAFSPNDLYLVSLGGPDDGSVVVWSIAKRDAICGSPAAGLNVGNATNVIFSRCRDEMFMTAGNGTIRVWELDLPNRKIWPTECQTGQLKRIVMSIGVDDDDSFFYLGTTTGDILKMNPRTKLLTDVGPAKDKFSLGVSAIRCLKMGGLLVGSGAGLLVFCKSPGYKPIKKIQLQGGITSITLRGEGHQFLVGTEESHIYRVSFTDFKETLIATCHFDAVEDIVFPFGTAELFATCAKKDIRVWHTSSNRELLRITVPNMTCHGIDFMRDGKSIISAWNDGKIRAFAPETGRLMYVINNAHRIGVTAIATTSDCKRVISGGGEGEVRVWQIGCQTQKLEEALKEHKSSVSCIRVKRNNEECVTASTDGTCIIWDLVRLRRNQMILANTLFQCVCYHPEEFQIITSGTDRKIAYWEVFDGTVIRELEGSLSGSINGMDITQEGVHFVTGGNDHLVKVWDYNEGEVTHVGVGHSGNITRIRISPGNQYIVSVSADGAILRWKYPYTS

Chains of the proteins cited; added tags and fusions are not shown.
UniProt P68371: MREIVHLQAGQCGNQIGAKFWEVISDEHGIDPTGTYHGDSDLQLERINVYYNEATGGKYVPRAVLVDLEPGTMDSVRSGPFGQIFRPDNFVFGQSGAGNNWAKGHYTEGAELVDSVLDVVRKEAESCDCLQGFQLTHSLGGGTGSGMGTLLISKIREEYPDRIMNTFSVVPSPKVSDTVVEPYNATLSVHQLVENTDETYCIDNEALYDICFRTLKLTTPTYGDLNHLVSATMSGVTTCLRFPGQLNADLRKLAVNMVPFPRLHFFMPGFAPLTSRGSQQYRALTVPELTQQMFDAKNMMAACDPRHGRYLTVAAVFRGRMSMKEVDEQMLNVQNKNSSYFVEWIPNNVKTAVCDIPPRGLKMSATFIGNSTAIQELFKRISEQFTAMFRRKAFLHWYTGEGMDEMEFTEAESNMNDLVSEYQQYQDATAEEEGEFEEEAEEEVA
UniProt Q969V4: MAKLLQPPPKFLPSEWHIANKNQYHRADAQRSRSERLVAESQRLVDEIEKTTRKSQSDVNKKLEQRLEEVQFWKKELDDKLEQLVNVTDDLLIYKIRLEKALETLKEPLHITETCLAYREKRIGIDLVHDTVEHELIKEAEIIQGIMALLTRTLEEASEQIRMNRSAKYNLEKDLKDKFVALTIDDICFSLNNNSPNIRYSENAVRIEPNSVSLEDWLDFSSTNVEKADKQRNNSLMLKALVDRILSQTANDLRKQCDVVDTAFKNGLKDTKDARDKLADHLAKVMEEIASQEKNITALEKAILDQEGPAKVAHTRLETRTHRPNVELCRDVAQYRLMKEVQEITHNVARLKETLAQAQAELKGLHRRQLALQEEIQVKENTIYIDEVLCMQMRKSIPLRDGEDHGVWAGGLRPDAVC
UniProt Q9Y5B8: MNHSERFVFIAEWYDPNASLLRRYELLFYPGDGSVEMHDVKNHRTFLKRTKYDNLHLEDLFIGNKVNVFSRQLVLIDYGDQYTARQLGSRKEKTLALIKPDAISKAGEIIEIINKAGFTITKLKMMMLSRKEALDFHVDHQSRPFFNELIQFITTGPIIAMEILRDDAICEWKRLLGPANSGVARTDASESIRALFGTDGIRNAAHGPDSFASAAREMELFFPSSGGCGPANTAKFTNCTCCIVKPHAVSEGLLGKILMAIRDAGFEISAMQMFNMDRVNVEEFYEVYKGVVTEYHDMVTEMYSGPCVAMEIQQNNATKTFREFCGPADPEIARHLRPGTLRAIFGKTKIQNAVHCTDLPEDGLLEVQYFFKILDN

Test [4] addresses T2, ENKUR (human (endogenous in respiratory cilia)) (UniProt Q8TC29).
T2 sequence: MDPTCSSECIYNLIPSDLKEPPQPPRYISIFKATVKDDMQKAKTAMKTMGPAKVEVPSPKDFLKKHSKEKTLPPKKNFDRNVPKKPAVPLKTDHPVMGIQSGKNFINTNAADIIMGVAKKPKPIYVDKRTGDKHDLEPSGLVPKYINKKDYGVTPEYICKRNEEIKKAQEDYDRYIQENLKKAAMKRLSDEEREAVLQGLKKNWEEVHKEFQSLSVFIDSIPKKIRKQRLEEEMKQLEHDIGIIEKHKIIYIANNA

In test [5] the target is T3, CFAP45 (human (endogenous in respiratory cilia)) (UniProt Q9UL16).
T3 sequence: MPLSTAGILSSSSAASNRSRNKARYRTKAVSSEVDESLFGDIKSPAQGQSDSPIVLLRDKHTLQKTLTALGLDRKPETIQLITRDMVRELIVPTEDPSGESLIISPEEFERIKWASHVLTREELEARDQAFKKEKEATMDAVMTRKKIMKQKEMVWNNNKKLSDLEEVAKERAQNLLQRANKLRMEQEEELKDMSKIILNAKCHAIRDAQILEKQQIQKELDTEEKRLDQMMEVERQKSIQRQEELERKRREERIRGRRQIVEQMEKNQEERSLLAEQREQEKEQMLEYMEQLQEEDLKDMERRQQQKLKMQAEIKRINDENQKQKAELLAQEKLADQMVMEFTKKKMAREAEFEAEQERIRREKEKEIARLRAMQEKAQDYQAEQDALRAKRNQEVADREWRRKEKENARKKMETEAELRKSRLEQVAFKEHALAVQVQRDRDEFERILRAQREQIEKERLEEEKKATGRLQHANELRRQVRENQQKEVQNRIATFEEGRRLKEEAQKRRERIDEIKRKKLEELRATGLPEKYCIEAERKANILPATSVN

Test [6] has as its target T4, CFAP53 (human (endogenous in respiratory cilia)) (UniProt Q96M91).
T4 sequence: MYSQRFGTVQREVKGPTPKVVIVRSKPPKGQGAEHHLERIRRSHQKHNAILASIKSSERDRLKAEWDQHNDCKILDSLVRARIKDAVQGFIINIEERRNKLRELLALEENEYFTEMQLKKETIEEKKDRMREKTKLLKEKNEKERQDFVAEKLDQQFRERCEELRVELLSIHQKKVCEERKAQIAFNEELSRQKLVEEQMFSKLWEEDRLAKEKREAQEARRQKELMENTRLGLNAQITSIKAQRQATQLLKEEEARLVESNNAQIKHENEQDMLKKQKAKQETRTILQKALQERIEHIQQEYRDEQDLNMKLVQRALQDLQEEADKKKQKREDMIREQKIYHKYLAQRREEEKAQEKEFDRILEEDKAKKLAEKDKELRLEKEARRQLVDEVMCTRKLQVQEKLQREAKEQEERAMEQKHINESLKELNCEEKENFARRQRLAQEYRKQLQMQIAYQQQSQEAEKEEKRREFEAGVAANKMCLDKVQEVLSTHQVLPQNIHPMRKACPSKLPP

Test [7] has as its target NME7 (human (endogenous in respiratory cilia)) (UniProt Q9Y5B8).
The target in test [8] is T5, CFAP210 (human (endogenous in respiratory cilia)) (UniProt Q0VFZ6).
T5 sequence: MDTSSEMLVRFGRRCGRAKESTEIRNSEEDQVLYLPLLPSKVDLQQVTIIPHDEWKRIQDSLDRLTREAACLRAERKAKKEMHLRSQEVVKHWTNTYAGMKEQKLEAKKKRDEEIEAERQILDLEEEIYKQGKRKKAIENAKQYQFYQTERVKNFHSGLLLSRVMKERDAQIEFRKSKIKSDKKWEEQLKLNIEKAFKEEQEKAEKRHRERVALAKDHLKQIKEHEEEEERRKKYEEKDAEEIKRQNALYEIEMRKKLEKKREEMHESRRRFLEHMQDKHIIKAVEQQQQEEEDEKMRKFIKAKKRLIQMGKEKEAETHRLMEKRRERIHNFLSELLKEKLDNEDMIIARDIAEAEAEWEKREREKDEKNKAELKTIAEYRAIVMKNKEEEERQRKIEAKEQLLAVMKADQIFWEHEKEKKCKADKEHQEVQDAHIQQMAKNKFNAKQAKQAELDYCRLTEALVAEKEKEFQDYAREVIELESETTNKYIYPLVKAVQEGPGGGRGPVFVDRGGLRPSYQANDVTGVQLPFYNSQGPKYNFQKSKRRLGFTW

These are yes or no findings as the source states them, for the method shown. Some results given as binding are weak or reduced against the parent protein; the word gives no strength.

B1: SPACA9 (protein, UniProt Q96E40 1-222)
chain: MNEVKESLRSIEQKYKLFQQQQLTFTAALEHCRENAHDKIRPISSIGQVQSYMEHYCNSSTDRRVLLMFLDICSELNKLCQHFEAVHSGTPVTNNLLEKCKTLVSQSNDLSSLRAKYPHDVVNHLSCDEARNHYGGVVSLIPLILDLMKEWIAHSEKLPRKVLQHVSEPQAHQESTRGAARPAQAIGTQPRATKHKCRQLTKASLKPRGCSKPPWRPPGGKL
As for B1, the binding result in test [1] is given as “binds”.

B2: FAM166C (protein, UniProt A6NJV1 1-201)
chain: MASRSAGTLLTEFNAAYVPPGLMPGYQGHVPTVAFSFGAPYGTTTLKYFQDHRNRAMEKSHTPFSQGGHFPTIFSTNPNLLLMERASTRDRWLHKPSYTRFNLDSHRSTELTNFYQMVQQHRKYYQDKTGTVPRVPYFAMPVREPERYPLPTVLPPLCPKKKWHLLRLAPENLKTYQTFPSGKRVSPQERKKRDCYFEFRA
As for B2, the binding entry in test [2] is “binds”.

B3: CFAP90 (protein, UniProt A4QMS7 1-147)
chain: MEDDEEETTASTLRGKPRPPPVSAQSAFSYIPPRRLDPKEHSYYYRPARTGIISLYDCIFKRRLDYDQKLHRDDREHAKSLGLHVNEEEQERPVGVLTSSVYGKRINQPIEPLNRDFGRANHVQADFYRKNDIPSLKEPGFGHIAPS
Regarding B3, the binding entry in test [3], in test [4] and in test [5] was “binds” throughout.

B4: CFAP68 (protein, UniProt Q9H5F2 1-150)
chain: MAASQCLCCSKFLFQRQNLACFLTNPHCGSLVNADGHGEVWTDWNNMSKFFQYGWRCTTNENTYSNRTLMGNWNQERYDLRNIVQPKPLPSQFGHYFETTYDTSYNNKMPLSTHRFKREPHWFPGHQPELDPPRYKCTEKSTYMNSYSKP
As for B4, the binding result in test [6] and in test [7] was “binds” throughout.

B5: FAM183A (protein, UniProt A6NL82 1-134)
chain: MAGHPKEKVIPDEVHQNQILRELYLKELRTQKLYTQYHVNPLRKIHTVTRKPMSWHDNLEEPADARFLNLIHHAAQGPRKKYPETQTENQEVGWDLEPLINPERHDRRLNHFRVCSDITLYKAKTWGLGDDHHK
For the molecule B5, the binding result in test [8] and in test [5] was “binds” throughout.
